Reference: the supplement of paper PMC10849652
The list shows a part of the results.

Chains of the proteins cited; added tags and fusions are not shown. Lines headed by an entry give the natural chain unless they say otherwise; changes in a name come on top.
UniProt Q9H267: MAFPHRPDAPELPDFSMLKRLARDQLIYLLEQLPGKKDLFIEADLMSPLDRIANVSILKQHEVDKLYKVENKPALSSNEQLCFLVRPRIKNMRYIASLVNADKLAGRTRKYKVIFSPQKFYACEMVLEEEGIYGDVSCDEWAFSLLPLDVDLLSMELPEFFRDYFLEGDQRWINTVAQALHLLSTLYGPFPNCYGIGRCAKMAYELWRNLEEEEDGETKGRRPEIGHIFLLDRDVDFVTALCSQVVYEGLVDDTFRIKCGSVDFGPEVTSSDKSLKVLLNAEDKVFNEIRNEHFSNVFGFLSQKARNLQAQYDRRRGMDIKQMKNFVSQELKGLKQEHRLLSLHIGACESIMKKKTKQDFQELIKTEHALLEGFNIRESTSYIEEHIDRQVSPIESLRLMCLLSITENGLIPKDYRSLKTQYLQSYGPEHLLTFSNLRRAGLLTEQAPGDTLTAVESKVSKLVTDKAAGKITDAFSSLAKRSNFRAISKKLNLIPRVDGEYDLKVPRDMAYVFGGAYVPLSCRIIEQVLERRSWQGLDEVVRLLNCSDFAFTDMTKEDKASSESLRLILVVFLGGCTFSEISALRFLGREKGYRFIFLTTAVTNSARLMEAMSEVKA
UniProt Q8N9V3: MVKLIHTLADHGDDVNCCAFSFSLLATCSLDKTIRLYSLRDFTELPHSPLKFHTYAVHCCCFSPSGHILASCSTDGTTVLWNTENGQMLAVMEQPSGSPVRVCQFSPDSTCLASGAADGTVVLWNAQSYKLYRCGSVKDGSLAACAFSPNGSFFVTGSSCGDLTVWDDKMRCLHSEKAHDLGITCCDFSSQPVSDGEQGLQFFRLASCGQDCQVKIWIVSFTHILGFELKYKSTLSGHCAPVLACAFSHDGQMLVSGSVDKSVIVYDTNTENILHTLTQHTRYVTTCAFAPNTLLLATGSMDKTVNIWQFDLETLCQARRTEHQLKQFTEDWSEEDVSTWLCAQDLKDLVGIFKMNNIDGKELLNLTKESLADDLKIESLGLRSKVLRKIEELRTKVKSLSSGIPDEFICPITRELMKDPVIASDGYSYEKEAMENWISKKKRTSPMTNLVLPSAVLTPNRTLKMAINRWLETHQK
UniProt Q9H6Y2: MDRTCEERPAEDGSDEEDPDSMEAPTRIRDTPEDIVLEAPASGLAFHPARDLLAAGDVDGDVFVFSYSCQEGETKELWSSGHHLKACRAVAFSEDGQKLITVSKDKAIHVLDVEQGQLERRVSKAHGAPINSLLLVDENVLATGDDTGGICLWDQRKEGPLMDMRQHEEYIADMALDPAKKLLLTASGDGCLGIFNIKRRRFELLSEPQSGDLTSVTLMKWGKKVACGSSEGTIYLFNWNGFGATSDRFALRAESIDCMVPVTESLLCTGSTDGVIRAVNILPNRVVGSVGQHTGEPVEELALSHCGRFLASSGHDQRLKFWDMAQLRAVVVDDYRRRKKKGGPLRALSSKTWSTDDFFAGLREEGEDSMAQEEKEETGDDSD
UniProt Q9UGM6: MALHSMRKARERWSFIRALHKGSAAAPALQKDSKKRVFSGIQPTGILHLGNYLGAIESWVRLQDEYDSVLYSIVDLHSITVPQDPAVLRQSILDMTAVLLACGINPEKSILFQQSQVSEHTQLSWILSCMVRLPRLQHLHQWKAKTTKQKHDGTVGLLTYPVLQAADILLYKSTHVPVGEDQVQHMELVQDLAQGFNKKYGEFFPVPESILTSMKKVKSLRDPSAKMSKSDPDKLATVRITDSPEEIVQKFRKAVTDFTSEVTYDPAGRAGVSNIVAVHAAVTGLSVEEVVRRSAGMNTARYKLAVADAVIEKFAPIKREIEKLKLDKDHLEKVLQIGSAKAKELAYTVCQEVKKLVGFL
UniProt Q96JC1: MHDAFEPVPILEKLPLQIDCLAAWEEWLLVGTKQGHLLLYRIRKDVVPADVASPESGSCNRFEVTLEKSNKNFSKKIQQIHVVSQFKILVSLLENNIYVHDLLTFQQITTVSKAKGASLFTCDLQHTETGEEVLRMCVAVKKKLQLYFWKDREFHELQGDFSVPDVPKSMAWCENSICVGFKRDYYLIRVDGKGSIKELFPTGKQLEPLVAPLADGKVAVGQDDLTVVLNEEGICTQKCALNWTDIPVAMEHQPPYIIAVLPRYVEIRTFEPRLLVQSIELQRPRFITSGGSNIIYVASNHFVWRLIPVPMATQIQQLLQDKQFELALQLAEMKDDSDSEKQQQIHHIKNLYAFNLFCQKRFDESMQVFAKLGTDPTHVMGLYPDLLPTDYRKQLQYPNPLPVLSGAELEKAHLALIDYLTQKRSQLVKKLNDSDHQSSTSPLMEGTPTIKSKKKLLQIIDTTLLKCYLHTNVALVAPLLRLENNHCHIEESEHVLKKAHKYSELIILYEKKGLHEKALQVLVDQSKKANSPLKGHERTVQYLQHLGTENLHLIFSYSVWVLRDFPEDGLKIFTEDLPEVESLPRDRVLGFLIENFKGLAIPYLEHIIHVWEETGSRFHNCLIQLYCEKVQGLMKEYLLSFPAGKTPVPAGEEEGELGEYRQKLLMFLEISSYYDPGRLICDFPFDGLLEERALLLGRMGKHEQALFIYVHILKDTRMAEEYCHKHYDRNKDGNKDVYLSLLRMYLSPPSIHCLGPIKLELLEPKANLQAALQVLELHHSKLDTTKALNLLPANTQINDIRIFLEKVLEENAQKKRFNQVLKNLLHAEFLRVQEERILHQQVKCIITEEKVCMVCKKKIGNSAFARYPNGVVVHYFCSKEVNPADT
UniProt Q12768: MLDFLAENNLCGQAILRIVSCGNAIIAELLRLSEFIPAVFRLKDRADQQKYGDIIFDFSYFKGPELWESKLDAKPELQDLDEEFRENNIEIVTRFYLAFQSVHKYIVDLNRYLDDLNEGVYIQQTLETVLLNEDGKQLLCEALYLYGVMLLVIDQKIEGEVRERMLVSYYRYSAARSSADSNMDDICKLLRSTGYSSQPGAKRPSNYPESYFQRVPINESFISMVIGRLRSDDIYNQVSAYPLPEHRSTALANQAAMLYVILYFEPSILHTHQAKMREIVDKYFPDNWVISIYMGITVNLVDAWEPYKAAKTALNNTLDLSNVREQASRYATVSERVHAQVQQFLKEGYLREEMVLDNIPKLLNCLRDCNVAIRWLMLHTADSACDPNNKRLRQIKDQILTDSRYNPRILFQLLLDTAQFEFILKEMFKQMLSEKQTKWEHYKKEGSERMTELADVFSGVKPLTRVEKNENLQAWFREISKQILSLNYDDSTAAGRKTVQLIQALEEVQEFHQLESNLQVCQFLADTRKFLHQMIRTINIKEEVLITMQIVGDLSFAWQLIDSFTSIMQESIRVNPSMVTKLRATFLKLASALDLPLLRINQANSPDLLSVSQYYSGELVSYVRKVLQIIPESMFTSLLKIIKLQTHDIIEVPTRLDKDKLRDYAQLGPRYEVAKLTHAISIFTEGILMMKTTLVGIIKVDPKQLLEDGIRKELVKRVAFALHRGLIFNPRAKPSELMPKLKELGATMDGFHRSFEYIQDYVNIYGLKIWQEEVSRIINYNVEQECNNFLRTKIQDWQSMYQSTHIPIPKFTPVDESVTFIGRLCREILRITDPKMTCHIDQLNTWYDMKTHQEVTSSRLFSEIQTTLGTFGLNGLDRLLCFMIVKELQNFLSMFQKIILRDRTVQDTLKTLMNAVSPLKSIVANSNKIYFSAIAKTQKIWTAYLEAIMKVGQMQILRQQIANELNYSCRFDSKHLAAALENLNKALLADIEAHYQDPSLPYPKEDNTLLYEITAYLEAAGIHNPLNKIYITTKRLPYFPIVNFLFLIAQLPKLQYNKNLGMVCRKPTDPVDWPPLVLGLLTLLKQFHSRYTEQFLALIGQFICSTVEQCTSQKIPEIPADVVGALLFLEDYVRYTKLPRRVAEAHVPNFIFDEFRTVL
UniProt Q8NEZ3: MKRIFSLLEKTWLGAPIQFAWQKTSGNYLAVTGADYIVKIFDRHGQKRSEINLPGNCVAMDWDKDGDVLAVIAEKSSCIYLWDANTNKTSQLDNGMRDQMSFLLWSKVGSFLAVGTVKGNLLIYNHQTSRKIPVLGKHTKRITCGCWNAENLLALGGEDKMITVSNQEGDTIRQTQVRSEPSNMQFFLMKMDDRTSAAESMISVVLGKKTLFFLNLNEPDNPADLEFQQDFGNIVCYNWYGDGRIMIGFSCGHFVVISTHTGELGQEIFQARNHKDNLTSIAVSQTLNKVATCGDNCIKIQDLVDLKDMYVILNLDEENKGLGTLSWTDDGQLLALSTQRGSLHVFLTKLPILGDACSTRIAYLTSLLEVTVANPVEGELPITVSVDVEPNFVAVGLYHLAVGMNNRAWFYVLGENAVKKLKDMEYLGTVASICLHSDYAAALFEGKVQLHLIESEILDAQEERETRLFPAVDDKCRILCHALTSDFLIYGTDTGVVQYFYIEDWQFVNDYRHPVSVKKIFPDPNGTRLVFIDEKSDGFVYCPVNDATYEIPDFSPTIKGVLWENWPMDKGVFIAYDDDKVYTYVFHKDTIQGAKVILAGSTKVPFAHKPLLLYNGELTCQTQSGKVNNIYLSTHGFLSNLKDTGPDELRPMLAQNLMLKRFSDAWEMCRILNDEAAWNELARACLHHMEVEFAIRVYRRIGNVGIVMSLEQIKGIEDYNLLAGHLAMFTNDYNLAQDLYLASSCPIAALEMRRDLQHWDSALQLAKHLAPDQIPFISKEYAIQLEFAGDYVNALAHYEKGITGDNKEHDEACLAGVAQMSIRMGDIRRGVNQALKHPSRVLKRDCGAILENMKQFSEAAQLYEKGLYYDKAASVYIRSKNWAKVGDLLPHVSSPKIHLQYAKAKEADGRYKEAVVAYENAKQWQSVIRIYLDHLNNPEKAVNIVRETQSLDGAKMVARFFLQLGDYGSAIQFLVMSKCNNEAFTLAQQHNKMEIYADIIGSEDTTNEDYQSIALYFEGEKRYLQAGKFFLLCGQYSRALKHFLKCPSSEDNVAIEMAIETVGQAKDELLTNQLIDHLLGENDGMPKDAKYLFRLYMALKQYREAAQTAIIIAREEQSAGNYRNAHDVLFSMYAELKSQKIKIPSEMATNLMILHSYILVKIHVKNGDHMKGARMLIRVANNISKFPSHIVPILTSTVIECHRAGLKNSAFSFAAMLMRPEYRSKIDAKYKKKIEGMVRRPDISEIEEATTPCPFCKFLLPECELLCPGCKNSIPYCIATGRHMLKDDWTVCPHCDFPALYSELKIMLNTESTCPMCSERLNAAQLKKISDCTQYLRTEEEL
UniProt Q9BUR4: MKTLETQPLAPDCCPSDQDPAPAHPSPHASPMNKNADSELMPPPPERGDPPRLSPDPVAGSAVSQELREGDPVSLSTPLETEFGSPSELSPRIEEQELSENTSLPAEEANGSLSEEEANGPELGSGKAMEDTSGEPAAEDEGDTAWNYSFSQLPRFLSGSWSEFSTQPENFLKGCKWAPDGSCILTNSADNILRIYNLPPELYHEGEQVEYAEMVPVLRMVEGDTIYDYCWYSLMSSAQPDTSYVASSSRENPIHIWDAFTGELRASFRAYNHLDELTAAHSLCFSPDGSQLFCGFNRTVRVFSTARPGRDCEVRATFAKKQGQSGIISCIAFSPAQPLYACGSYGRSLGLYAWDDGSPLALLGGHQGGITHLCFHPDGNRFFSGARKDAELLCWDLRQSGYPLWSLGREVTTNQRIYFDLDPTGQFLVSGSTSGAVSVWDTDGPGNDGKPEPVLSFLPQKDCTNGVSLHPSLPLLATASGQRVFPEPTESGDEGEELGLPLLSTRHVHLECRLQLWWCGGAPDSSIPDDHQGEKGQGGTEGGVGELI
UniProt Q8TF74: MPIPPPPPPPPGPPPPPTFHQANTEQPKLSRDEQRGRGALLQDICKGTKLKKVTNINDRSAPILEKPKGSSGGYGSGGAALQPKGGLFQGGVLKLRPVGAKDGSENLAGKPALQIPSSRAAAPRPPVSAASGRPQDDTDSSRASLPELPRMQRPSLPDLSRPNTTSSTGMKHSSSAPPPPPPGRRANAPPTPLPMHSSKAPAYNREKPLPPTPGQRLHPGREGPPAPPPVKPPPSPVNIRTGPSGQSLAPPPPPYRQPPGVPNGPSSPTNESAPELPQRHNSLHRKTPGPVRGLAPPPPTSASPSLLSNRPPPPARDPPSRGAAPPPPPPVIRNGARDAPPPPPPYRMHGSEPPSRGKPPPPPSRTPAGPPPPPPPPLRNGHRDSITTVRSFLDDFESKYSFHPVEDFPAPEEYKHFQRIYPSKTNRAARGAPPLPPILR

What was measured:
Test in all cases: log2 fold change, soluble protein after heating vs DMSO (PISA); higher = thermal stabilisation; K562 cells, 10 uM, 30 min; active = over 0.2 and 3.5 SD of the protein, either way, in both replicates (recomputed)
[1] = compound: C1=CC=C(C=C1)[C@H](COC2=CC3=C(C=C2)NC(=O)N3)NC(=O)C4=CC=CN(C4=O)CC5=CC(=C(C=C5)F)F
How it was run: (§1)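 K562 cells at 2×10^6 cells/mL were treated with 10 μM compound for 30 min. Aliquots were heated for 3 min across 48°C-58°C, pooled, and extracted in PBS with 0.5% NP-40 at 4°C; soluble protein was the supernatant after 21,000xg for 90 min. Soluble protein was quantified by TMTpro 16plex LC-MS/MS with channel sums equalised, and reported as log2 fold change in thermal stability against DMSO controls, with values from duplicates.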

[2] = compound: CC1=C(SC2=C1C(=N[C@H](C3=NN=C(N32)C)CC(=O)N)C4=CC=C(C=C4)Cl)C
How it was run: as §1

[3] = compound: CC1=C2C(=CC=C1)N=C(N(C2=O)C3=CC=CC=C3C)CN4C=NC5=C(N=CN=C54)N
How it was run: as §1

[4] = compound: Cc1sc2c(c1C)C(c1ccc(Cl)cc1)=N[C@@H](CC(=O)OC(C)(C)C)c1nnc(C)n1-2
How it was run: as §1

[5] = compound: c1ccc([C@@H]2C[C@H]2NC2CCNCC2)cc1
How it was run: as §1

Measured: log2 fold change

WNK1 isoform 7 (UniProt Q9H4A3)
inactive: [1] -0.011 | [2] 0.023 | [3] 0.049 | [4] -0.007 | [5] -0.003

WEE1 (UniProt P30291)
inactive: [1] 0.116 | [2] -0.031 | [3] -0.059 | [4] 0.132 | [5] 0.11

WDR13 (UniProt Q9H1Z4)
inactive: [1] 0.009 | [2] 0.052 | [3] 0.071 | [4] -0.013 | [5] -0.114

WBP11 (UniProt Q9Y2W2)
inactive: [1] 0.021 | [2] -0.024 | [3] -0.047 | [4] 0.024 | [5] 0.032

VTA1 (UniProt Q9NP79)
inactive: [1] 0.007 | [2] 0.062 | [3] 0.104 | [4] -0.075 | [5] -0.025

WRB (UniProt O00258)
inactive: [1] 0.002 | [2] -0.007 | [3] -0.015 | [4] 0.005 | [5] 0.01

WDR7 (UniProt Q9Y4E6)
inactive: [1] -0.037 | [2] 0.013 | [3] -0.068 | [4] -0.131 | [5] -0.093

VPS37A (UniProt Q8NEZ2)
inactive: [1] -0.076 | [2] 0.088 | [3] 0.126 | [4] 0.007 | [5] 0.036

WASL (UniProt O00401)
inactive: [1] -0.043 | [2] 0.019 | [3] 0.054 | [4] 0.024 | [5] -0.071

VPS33B (UniProt Q9H267)
inactive: [1] -0.102 | [2] 0.021 | [3] 0.03 | [4] 0.008 | [5] -0.064

WASHC3 (UniProt Q9Y3C0)
inactive: [1] 0.015 | [2] -0.022 | [3] 0.045 | [4] -0.001 | [5] 0.028

WDTC1 (UniProt Q8N5D0)
inactive: [1] -0.059 | [2] -0.043 | [3] 0.036 | [4] -0.093 | [5] -0.06

VPS36 (UniProt Q86VN1)
inactive: [1] -0.036 | [2] 0.026 | [3] 0.036 | [4] 0.014 | [5] -0.026

VPS53 isoform 4 (UniProt Q5VIR6)
inactive: [1] -0.009 | [2] 0.02 | [3] 0.049 | [4] -0.006 | [5] -0.007

VPS26A (UniProt O75436)
inactive: [1] -0.029 | [2] 0.08 | [3] 0.055 | [4] -0.021 | [5] -0.004

WDFY1 (UniProt Q8IWB7)
inactive: [1] -0.001 | [2] -0.024 | [3] -0.016 | [4] 0.027 | [5] 0.058

WDSUB1 (UniProt Q8N9V3)
inactive: [1] -0.032 | [2] 0.021 | [3] 0.055 | [4] -0.011 | [5] 0.035

WDR47 (UniProt O94967)
inactive: [1] 0.019 | [2] 0.004 | [3] -0.042 | [4] -0.031 | [5] 0.078

WDR91 (UniProt A4D1P6)
inactive: [1] -0.064 | [2] -0.059 | [3] 0.056 | [4] -0.043 | [5] 0.016

VPS8 (UniProt Q8N3P4)
inactive: [1] -0.08 | [2] 0.106 | [3] 0.042 | [4] -0.034 | [5] 0.017

VPS13C (UniProt Q709C8)
inactive: [1] -0.013 | [2] 0.067 | [3] 0.052 | [4] -0.049 | [5] 0.006

VPS35 (UniProt Q96QK1)
inactive: [1] -0.043 | [2] 0.001 | [3] 0.018 | [4] -0.006 | [5] -0.018

VPS16 (UniProt Q9H269)
inactive: [1] -0.188 | [2] 0.048 | [3] 0.106 | [4] -0.021 | [5] -0.038

WASHC2A (UniProt Q641Q2)
inactive: [1] -0.006 | [2] -0.041 | [3] -0.017 | [4] 0.069 | [5] 0.033

WDR12 (UniProt Q9GZL7)
inactive: [1] 0.04 | [2] 0.051 | [3] 0.036 | [4] 0.01 | [5] 0.038

VPS52 (UniProt Q8N1B4)
inactive: [1] 0.068 | [2] 0.036 | [3] 0.137 | [4] -0.057 | [5] -0.028

WDR55 (UniProt Q9H6Y2)
inactive: [1] 0.003 | [2] -0.015 | [3] 0.022 | [4] 0.018 | [5] 0.051

VKORC1L1, A0A3B3ISV4
inactive: [1] -0.024 | [2] 0.057 | [3] -0.017 | [4] -0.06 | [5] 0.044

VPS26C (UniProt O14972)
inactive: [1] -0.047 | [2] -0.068 | [3] -0.361 | [4] -0.051 | [5] -0.016

WBP4 (UniProt O75554)
inactive: [1] 0.012 | [2] 0.009 | [3] -0.024 | [4] 0.014 | [5] 0.051

VRK2 (UniProt Q86Y07)
inactive: [1] 0.001 | [2] 0.004 | [3] 0.011 | [4] 0.005 | [5] -0.083

VPS26B (UniProt Q4G0F5)
inactive: [1] -0.057 | [2] 0.07 | [3] 0.066 | [4] 0.011 | [5] -0.001

WARS2 (UniProt Q9UGM6)
inactive: [1] -0.025 | [2] -0.009 | [3] 0.104 | [4] -0.002 | [5] 0.06

VPS39 (UniProt Q96JC1)
inactive: [1] -0.087 | [2] 0.018 | [3] 0.071 | [4] -0.009 | [5] -0.052

WDR92 (UniProt Q96MX6)
inactive: [1] -0.011 | [2] -0.005 | [3] 0.084 | [4] -0.083 | [5] -0.035

WRAP73 (UniProt Q9P2S5)
inactive: [1] 0.052 | [2] 0.036 | [3] 0.09 | [4] -0.022 | [5] 0.001

WASHC5 (UniProt Q12768)
inactive: [1] 0.034 | [2] 0.042 | [3] 0.09 | [4] 0.003 | [5] -0.041

WDR44 (UniProt Q5JSH3)
inactive: [1] 0.005 | [2] 0.025 | [3] 0.043 | [4] -0.008 | [5] 0.005

WDR46 (UniProt O15213)
inactive: [1] 0.058 | [2] -0.35 | [3] -0.302 | [4] 0.246 | [5] -0.005

WDR70 (UniProt Q9NW82)
inactive: [1] -0.016 | [2] 0.052 | [3] 0.034 | [4] -0.016 | [5] 0.012

WDR19 (UniProt Q8NEZ3)
inactive: [1] -0.019 | [2] 0.116 | [3] 0.363 | [4] -0.105 | [5] 0.013

Four entries picked at random from those above, as already listed:
VPS33B (UniProt Q9H267)
inactive: [1] -0.102 | [2] 0.021 | [3] 0.03 | [4] 0.008 | [5] -0.064

WASHC5 (UniProt Q12768)
inactive: [1] 0.034 | [2] 0.042 | [3] 0.09 | [4] 0.003 | [5] -0.041

WDFY1 (UniProt Q8IWB7)
inactive: [1] -0.001 | [2] -0.024 | [3] -0.016 | [4] 0.027 | [5] 0.058

VPS26B (UniProt Q4G0F5)
inactive: [1] -0.057 | [2] 0.07 | [3] 0.066 | [4] 0.011 | [5] -0.001

(further entries)

WRAP53 (UniProt Q9BUR4)
inactive: [1] 0.039 | [2] -0.137 | [3] -0.02 | [4] 0.039 | [5] 0.042

WDR53 (UniProt Q7Z5U6)
inactive: [1] 0.078 | [2] -0.115 | [3] 0.067 | [4] -0.016 | [5] 0.1

WIPF2 (UniProt Q8TF74)
inactive: [1] 0.055 | [2] -0.043 | [3] 0.008 | [4] -0.029 | [5] 0.024

VPS13D (UniProt Q5THJ4)
inactive: [1] 0.089 | [2] -0.019 | [3] -0.079 | [4] -0.021 | [5] -0.064

VWA3B isoform 6 (UniProt Q502W6)
inactive: [1] -0.161 | [2] 0.069 | [3] 0.162 | [4] 0.129 | [5] 0.064

VPS37C (UniProt A5D8V6)
inactive: [1] -0.062 | [2] 0.037 | [3] 0.074 | [4] -0.038 | [5] 0.038

VWDE (UniProt Q8N2E2)
inactive: [1] 0.035 | [2] -0.06 | [3] -0.017 | [4] 0.048 | [5] 0

WDR4 (UniProt P57081)
inactive: [1] -0.074 | [2] 0.048 | [3] -0.004 | [4] -0.025 | [5] -0.008

WDR26, A0A499FIZ0
inactive: [1] 0.002 | [2] -0.064 | [3] 0.003 | [4] 0.008 | [5] 0.042

WDR73 (UniProt Q6P4I2)
inactive: [1] 0.007 | [2] 0.05 | [3] 0.07 | [4] -0.017 | [5] 0.011

VPS33A (UniProt Q96AX1)
inactive: [1] -0.039 | [2] 0.053 | [3] 0.147 | [4] 0.059 | [5] -0.041

WDR6 (UniProt Q9NNW5)
inactive: [1] -0.024 | [2] 0 | [3] 0.038 | [4] 0.006 | [5] -0.035
